# In the supplement of paper PMC6445147:
# Values scatter widely in this assay.
# B1: human tRNA-Pro; a variant is named by its letters at N, in order (parent)
# chain: GGCTCGTTGGTCTAGNGGTATGATTCTCGCTTAGGGTGCGAGAGGTCCCGGGTTCNNATCCCGGACGAGCCC
# Legend:
# [1] = variants of: B1; assay: tRNA Pol-III promoter activity, log2 (circRNA frequency / plasmid DNA frequency) (log2 ratio); higher = stronger promoter activity; conditions: HEK293T; construct: no Pol-II promoter ((-)CMV library)
# [2] = variants of: B1; assay: tRNA 3' processing efficiency (processed reads / all reads, maximum-likelihood estimate) (fraction); higher = more efficient 3' processing; conditions: HEK293T; construct: no Pol-II promoter ((-)CMV library)
# [3] = variants of: B1; assay: tRNA 5' processing efficiency (processed reads / all reads, maximum-likelihood estimate) (fraction); higher = more efficient 5' processing; conditions: HEK293T; construct: CMV Pol-II promoter ((+)CMV library, decapped)
Variant,tRNA Pol-III promoter activity (log2) [1],tRNA 3' processing efficiency [2],tRNA 5' processing efficiency [3]
GAA G9T A58T,-0.229,0.4,0.27
GAA G17A A58C,0.443,0.4,–
GAA G17A A58T,-1.18,0.25,0.33
GAA G15C T19A,0.104,0.5,–
TAA G15C C55T,3.45,0.25,–
GAA G9A G35A A58T,5.26,0.4,–
AAA G17A T19A,3.54,0.27,–
GAA G9C G18T T59C,3.71,0.25,–
GAA G17C C55T,-1.03,0.22,–
GAA G15A T19A,0.0351,0.14,–
GAA G9T T59G,2.26,0.47,–
GAA G9T T59C,2.99,0.37,0.29
GAA G9T T59A,0.779,0.18,–
GAA G17A A20G T53A,3.67,0.2,–
GAA G9C G18A,0.727,0.8,–
GAA G9A G17T A58G T59G,6.26,0.2,–
AAA G17C,-0.351,0.8,–
GAA G15T G18A A33G C55A,3.61,0.5,–
GAA G9T A14C A58T,4.39,0.27,–

Variant,tRNA Pol-III promoter activity (log2) [1],tRNA 3' processing efficiency [2],tRNA 5' processing efficiency [3]
GAA G15C G17T A58G,2.04,0.75,–
CAA G15C T53A A58T,7.94,0.39,–
CAA G9C G18T,3.61,0.75,–
GAA G9C G17C A20T,1.3,0.33,–
GAA G15C T19A A58G,3.62,0.25,–
GAA G9T A14T T19A T59G,4.21,0.33,–
GAA G9A T46A,4.36,0.25,–
GAA G17C T19A,-0.0318,0.25,–
GAA G17C A58T T59G,3.26,0.4,–
GAA G9T A20T,-0.193,0.42,–
GAA G9T A20G,0.681,0.11,–
GAA G9T A58C T59C,4.16,0.57,–
GAA G9T T53G,-0.727,0.22,–
GAA G15C G17T C55G,4.26,0.29,–
GAA G9T G15T A58C,3.67,0.4,–
GAA G15A G18A C55A A58C,4.12,0.5,–
TAA G15A T53G,2.55,0.4,–
TAA G15A T53A,8.07,0.06,–
GAA G15A T53A T54A,2.94,0.25,–

Variant,tRNA Pol-III promoter activity (log2) [1],tRNA 3' processing efficiency [2],tRNA 5' processing efficiency [3]
GAA G17A T19A C55A,4.69,0.88,–
GAA G15T T19A A58G,8.47,0.17,–
GAA G9A T19A C55G,3.16,0.14,–
GAA G17A,-4.03,0.4,0.39
GAA G17C,-2.72,0.44,0.2
GAA G9T A20T T59G,5.51,0.15,–
GAA G15C A58T T59G,3.4,0.39,–
GAA G9A G17T T19A C55T,7.36,0.2,–
AAA G15A T53A,3.74,0.43,–
TAA G15A T59A,4.43,0.57,–
GAA G15A T19G T59G,4.62,0.25,–
GAA G15A A20T T53A,3.94,0.25,–
CAA G15A T53G,5.92,0.41,–
GAA G9T G15T T59G,6.52,0.86,–
GAA G15C T53A A58T,5.4,0.36,–
GAA G9C G18A T54A,3.94,0.57,–
GAA G15A T54A,1.02,0.3,–
GAA G15C G17A T19G T53G,5.77,0.2,–
GAA G9T G17T,-1.26,0.25,–
